# Data: patent US20150057320A1, “TRANSTHYRETIN LIGANDS CAPABLE OF INHIBITING RETINOL-DEPENDENT RBP4-TTR INTERACTION FOR TREATMENT OF AGE-RELATED MACULAR DEGENERATION, STARGARDT DISEASE, AND OTHER RETINAL DISEASE CHARACTERIZED BY EXCESSIVE LIPOFUSCIN ACCUMULATION” (The Trustees of Columbia University in the City of New York, priority 2012, published 2015)
# At least one structure is not confirmed: it was looked up by name or label, or the drawing left a doubt.
# Target: T1, human untagged RBP4 (Homo sapiens, UniProt P02753)
# T1 construct: human untagged RBP4 purified from urine of a tubular protienuria patient; purchased Fitzgerald industries; host or cells: human urine
# Assay: SPA-based RBP4 binding assay with 3H-retinol
# Conditions: 10 nM 3H-retinol, 25 nM biotinylated RBP4
# Source text: Scintillation proximity assay (SPA) is a versatile platform suitable for development of binding assays for the variety of targets. Given the homogeneous nature of this format, SPA assays are fully compatible with HTS requirements and suitable for post-HTS evaluation of putative hits. The high specific activity radioligand required for the development of SPA binding assay for RBP4, [11, 12-^3H(N)]-Retinol with 48.7 Ci/mmol, is commercially available.
# For assay implementation, human untagged RBP4 purified from urine of a tubular protienuria patient (commercially available from Fitzgerald industries) was biotinylated and Streptavidin-PVT SPA beads from PerkinElmer were used. Assay conditions were optimized in a 96-well format for reduction of nonspecific binding, non-proximity effects, temperature, incubation time and in regard of the radioligand and RBP4 concentrations. Non-radioactive retinol was used as a competitor in assay optimization and characterization. For conducting compound analysis the [11, 12-^3H(N)]-Retinol concentration was fixed at 10 nM and the biotinylated RBP4 concentration was 25 nM. […]
compound,measurement,value
COC(=O)C1=C(C)NC(C)=C(C(=O)OCC(C)C)C1c1ccccc1[N+](=O)[O-] (stereo not shown) [Nisoldipine],RBP4 binding activity,did not display the RBP4 binding activity
